Measured values: patent publication US20190060239A1, “Technology for the Preparation of Microparticles” (Ansun Biopharma, Inc., priority 2007, published 2019)
At least one compound was matched to its structure with a doubt left.

Experiment: Microsphere quality score by light microscopy (scoring system of Table 13)
Assay type: physicochemical
Conditions: for microsphere rating: Arginine buffer; for Microsphere Quality: compound 2 mg/ml
Experimental: For each of the compounds listed in A-D above, and for DAS181, cocktail solutions containing 2 mg/ml of compound dissolved in an aqueous solvent and various counterions, antisolvents and pH, as listed below, were prepared in a 96-well microtiter plate (0.1 ml cocktail/well) at room temperature. Control solutions contained either solvent or antisolvent alone, with or without the counterion. Cocktails were cooled by placing in a freezer. The chilled plates were transferred onto pre-chilled (−45° C.) shelves of a Millrock Lab Series Lyophilizer, and the vacuum was applied. The frozen cocktail solutions were allowed to lyophilize for 16 hours.
The lyophilized powders from the bottoms of the wells were transferred onto glass slides and analyzed by light microscopy for appearance. The quality of the product microspheres was scored based on the uniformity of the microspheres, the absence of undesirable non-microsphere particles (glass-like crystalline forms), and the absence of aggregates.
Arginine was used as counterion and isopropanol was used as antisolvent. Concentrations of each of the cocktail components—the compound, the counterion and the antisolvent—were varied as shown below in Table 15, and the effect on microsphere quality assessed.
Experiments were performed to evaluate the effect of antisolvent and counterion concentration variation on the formation of microspheres. The peptides leuprolide and somatostatin, and the antibiotics vancomycin and tobramycin, were tested under a variety of conditions for forming microspheres. Samples were analyzed in 96-well plates as described in the previous Examples.
The experiments were performed using PGI2 and an analog of PGI2, Ciprostene, at a concentration of 2 mg/ml. Cocktail solutions were mixed at room temperature, then cooled by placing in a freezer. The chilled plates were transferred onto pre-chilled (−45° C.) shelves of a Millrock Lab Series Lyophilizer, and the vacuum was applied. The frozen cocktail solutions were allowed to lyophilize for 16 hours.
Because the resulting prostaglandin microspheres are hygroscopic, upon microsphere initiation, the humidity was maintained at low levels during the experiments, using a nitrogen gas tank attached to the backfill system on the lyophilizer. Each of the reaction tubes was flushed with N2. In addition, the backfill valve on the lyophilizer was left open to continually flush a low humidity atmosphere over the samples. The microscope used to visualize the resulting microspheres was contained within a plastic bag that was continually purged with dry N2. Sample tubes were placed under the bag to equilibrate for approximately 30 seconds, before opening and spreading onto the glass slide.
The compound/counterion/antisolvent conditions were as follows:
Experiments were performed with 200 μl of each of the above cocktail solutions in a 2 ml lyophilization bottle (first flash freeze condition), and 25 μl of each of the above cocktail solutions in a PCR tube (second flash freeze condition). The samples in the lyophilization bottles took approximately 15 seconds to freeze. The samples in the PCR tubes took approximately 3 seconds or less to freeze.
The cocktails in the 96-well plates were cooled by placing in a freezer. The chilled plates were transferred onto pre-chilled (−45° C.) shelves of a Millrock Lab Series Lyophilizer, and a vacuum was applied. The frozen cocktail solutions were allowed to lyophilize for 16 hours.
The lyophilized powders from the bottoms of the wells were transferred onto glass slides and analyzed by light microscopy for appearance.

SMILES	microsphere rating (2 mg/ml, 20% n-Propanol/5% t-butanol)	microsphere rating (2 mg/ml, 20% n-Propanol/55% t-butanol)	maximum microsphere quality rating (2 mg/ml, PEI, 20% n-propanol/5% t-butanol)	Microsphere Quality (2 mM Arginine, pH 9, 20% n-propanol, 5% t-butanol)	Microsphere Quality (2 mM Arginine, pH 9, 20% n-propanol, 55% t-butanol)	Microsphere Quality (2 mM Arginine, pH 9, 20% n-propanol, 70% t-butanol)	Microsphere Quality (2 mM Arginine, pH 9, 30% n-propanol, 0% t-butanol)	Microsphere Quality (2 mM PEI, pH 10.75, 20% n-propanol, 0% t-butanol)	Microsphere Quality (2 mM PEI, pH 10.75, 20% n-propanol, 5% t-butanol)	Microsphere Quality (2 mM PEI, pH 10.75, 20% n-propanol, 30% t-butanol)	Microsphere Quality (2 mM PEI, pH 10.75, 20% n-propanol, 55% t-butanol)	Microsphere Quality (2 mM PEI, pH 10.75, 20% n-propanol, 70% t-butanol)	Microsphere Quality (2 mM TEA, pH 11, 20% n-propanol, 30% t-butanol)	maximum microsphere rating (2 mg/ml PGI2, over the buffer (PEI, TEA, Arginine) and n-propanol/t-butanol conditions tested)
CCCCC[C@H](O)/C=C/[C@H]1[C@H](O)C[C@]2(C)C/C(=C\CCCC(=O)O)C[C@H]12 [Ciprostene]	8	8	9	8	8	7	6	6	9	8	7	6	7	
CCCCC[C@H](O)/C=C/[C@@H]1[C@H]2C/C(=C/CCCC(=O)O)O[C@H]2C[C@H]1O [PGI2]														8
